For 63 compounds, AC50 results are on record in PubChem BioAssay AID493014 (National Center for Advancing Translational Sciences (NCATS), 2011).

The AC50 is the concentration at which the activity in the assay is half-maximal.

SMILES strings stand for the structures. This is one part of the list. Shown are side measurements of this screen, not its main read-out; they come without a call. The list favours compounds with an active or inconclusive main result. Potencies come from curve fits of mixed quality, noted in brackets.

A short description of this experiment: qHTS Assay to Find Inhibitors of Chronic Active B-Cell Receptor Signaling. To be noted: ABC-DLBCL IkBa-CBG/CBR reporter, luminescence ratio (green luciferase fused to IkBa over red control in TMD8 lymphoma cells), 4 h. In a few lines:
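TMD8 human ABC-DLBCL cells with doxycycline-inducible IκBα–green luciferase fusion and unfused red luciferase, in 0.5% FBS medium; compounds up to 46 uM, 4 h at 37C. Green/red luminescence ratio, filter-overlap corrected, fitted to concentration-response curves.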
(Quantitative high-throughput screening tests each substance at several concentrations.)

Where [1] appears, read: measured here: CBR red luminescence, cell number.
The mark [2] stands for this setting: measured here: IkBa-CBG green luminescence.

`COc1ccccc1C(=O)NNC(=O)c1cccc(Br)c1`: the AC50 under setting [1] is 10 µM [falling, partial curve]. On to `CCC(=O)Nc1cc2nn(-c3ccccc3)nc2cc1Cl`, for which the AC50 under setting [1] is 0.146 µM [rising, full curve, poor fit].

As to `CCOC(=O)C1CCCN(CC(=O)Nc2c(C(=O)OC)[nH]c3ccc(Br)cc23)C1` (configuration not stated), the AC50 under setting [1] was 14.1 µM [falling, single point]. The same measure, in the same setting: with `N#Cc1nc(/C=C/c2ccccc2)oc1NCCCN1CCOCC1` the figure was 0.0794 µM [falling, full curve, poor fit]; with `Cc1nc(C(C)N(C)Cc2nc(-c3ccc4c(c3)OCO4)no2)c(C)s1` (configuration not stated), 6.31 µM [falling, partial curve, poor fit].

On to `CC1C(=O)NN=C1C(=O)N/N=C/c1ccco1` (configuration not stated), for which the AC50 under setting [1] is 22.4 µM [falling, partial curve, poor fit]. Still for that read-out and setting: with `N=c1n(Cc2ccc(Cl)cc2)c2ccccc2n1CC(O)COc1ccccc1` (configuration not stated) the figure was 11.2 µM [falling, single point]. In the case of `CCN1/C(=C2\OC(=S)N(C)C2=O)Sc2ccccc21`, the AC50 under setting [1] was 1 µM [rising, full curve, poor fit]. Same read-out and setting: with `CC(C)Cc1nnc(NC(=O)CCc2ccccc2)s1` the figure was 0.355 µM [rising, full curve, poor fit]; with `COc1cc(/C=N/NC(=O)c2cccc(NC(=O)c3ccccc3)c2)ccc1O`, 0.562 µM [falling, full curve, poor fit]; with `CCOc1ccc(NC2=NC(C(=O)NCc3ccccc3)CC(=O)N2)cc1` (configuration not stated), 5.62 µM [rising, single point]. The same measure, in the same setting: with `Cc1ccc(NC(=O)n2ncc3c(C)cccc32)cc1F` the figure was 11.2 µM [falling, partial curve]; with `CCn1c(SCC(=O)N2CCC(C)CC2)nc2c(c1=O)SCC2`, 8.91 µM [falling, partial curve, poor fit]. For the compound `CC(C)c1cc(C(=O)N/N=C/C(Br)=C/c2ccccc2)n[nH]1`, the half-maximal activity concentration (AC50) is 14.1 µM [rising, partial curve, poor fit] under setting [1] and 17.8 µM [falling, single point] under setting [2]. For the compound `COc1cc(SC)ccc1C(=O)Nc1ccc(Br)cn1`, the AC50 under setting [1] was 7.08 µM [falling, partial curve, poor fit]. Still for that read-out and setting: with `Fc1ccc2cnc(CCO[C@H]3CCCCO3)cc2c1` the figure was 0.259 µM [rising, full curve, poor fit]; with `CC(=O)Nc1ccc2nc(-c3ccncc3)[nH]c2c1`, 1.16 µM [falling, full curve]; with `O=C(CN1CCN(c2ncccn2)CC1)N(Cc1ccccc1)c1ccc(F)cc1`, 29.1 µM [falling, partial curve, poor fit]. On to `CC(OC(=O)C(C)Oc1ccccc1)C(=O)Nc1ccc(S(=O)(=O)N2CCCCC2)cc1` (configuration not stated), for which the AC50 is 29.1 µM [rising, single point] under setting [1] and 16.4 µM [falling, partial curve, poor fit] under setting [2]. As to `COCc1cc(=O)[nH]c(Nc2nc(C)c3cc(OC)ccc3n2)n1`, the AC50 under setting [1] was 8.2 µM [falling, partial curve, poor fit]. The same measure, in the same setting: with `N#Cc1nc(COc2ccccc2)oc1N1CCCCCC1` the figure was 11.6 µM [rising, partial curve, poor fit]; with `c1ccc(-c2nc(-c3nccc4ccccc34)oc2-c2ccccc2)cc1`, 35.5 µM [falling, single point]; with `O=C(CN(c1ccc(Cl)cc1)S(=O)(=O)c1ccccc1)N1CCN(c2ccccc2)CC1`, 6.51 µM [rising, single point]. Still for that read-out and setting: with `COc1ccccc1NC(=O)N1c2ccc(F)cc2CCC1C` (configuration not stated) the figure was 29.1 µM [falling, single point]; with `CC(=O)Cn1nnc2sc(-c3ccccc3)cc2c1=O`, 35.5 µM [falling, single point].

With `CCN(CC)CC(=O)Nc1ccc2c(c1)Nc1ccccc1CC2`, under setting [1], the concentration at half-maximal activity (AC50) is 14.1 µM [falling, single point].

Regarding `O=C(O)c1ccc(N=NN2CCCCCC2)cc1`, under setting [1], the AC50 was 6.51 µM [falling, partial curve, poor fit]. Still for that read-out and setting: with `Cc1cc(NC(=O)CSc2cn(CCNC(=O)c3ccc(Cl)cc3)c3ccccc23)no1` the figure was 10.3 µM [falling, partial curve, poor fit]; with `Cc1ccccc1C(=O)N/N=C/c1ccc([N+](=O)[O-])s1`, 11.6 µM [falling, partial curve, poor fit].

With `CN(CC(=O)Nc1ccc(F)c(F)c1F)C(=O)C1CCC1`, the AC50 under setting [1] is 0.206 µM [rising, full curve, poor fit].

With `O=C(c1ccco1)c1cn(CC(=O)N2CCCc3ccccc32)c2ccccc12`, under setting [1], the AC50 is 29.1 µM [falling, single point]. On the same count and under the same terms, with `COc1cc(OC)c2c(c1)OC(=O)CC2c1ccc(C)cc1` (configuration not stated) the figure was 16.4 µM [rising, partial curve]; with `CCOC(=O)C1=C(C)OC(N)=C(C#N)C1c1c(C)nn(-c2ccc(C)cc2)c1Cl` (configuration not stated), 32.6 µM [rising, single point]. Still for that read-out and setting: with `Cc1cc(C(=O)NCCc2ccc(Cl)cc2)no1` the figure was 0.891 µM [rising, full curve, poor fit]; with `Cc1cc(C)nc(NC(N)=NC(C)c2ccccc2)n1` (configuration not stated), 35.5 µM [falling, single point]; with `COc1ccc(C2=NOC3(CC(=O)N(c4ccc(F)cc4)C3=O)C2)c(OC)c1` (configuration not stated), 23.1 µM [falling, partial curve, poor fit]. `O=C1CCC(=O)N1c1nc2nc(-c3ccccc3)cc(=O)n2[nH]1`: under setting [1], the AC50 is 4.61 µM [rising, partial curve, poor fit]. In the case of `CCN1CCS/C1=C\C=C\C1=[N+](CC)CCS1`, the concentration at half-maximal activity (AC50) under setting [2] was 22.4 µM [falling, single point]. For `O=C(COC(=O)CNC(=O)c1ccccc1)Nc1nnc(-c2ccccc2)o1`, the AC50 under setting [1] is 16.4 µM [falling, partial curve, poor fit]. Still for that read-out and setting: with `Cc1ccccc1CSc1nc2nc(C)c(Cc3ccccc3)c(C)n2n1` the figure was 35.5 µM [rising, single point]; with `CCN1C(=O)[C@H]2[C@@H](c3ccc(-c4cccc(Cl)c4)cc3)N[C@@](Cc3ccccc3)(C(=O)OC)[C@H]2C1=O`, 13 µM [falling, partial curve, poor fit]; with `COc1cccc(NC(=O)c2oc3ccccc3c2NC(=O)C(C)(C)C)c1`, 8.2 µM [falling, partial curve]. As to `COc1ccc(C(=O)NNc2cc(C)nc(NNC(=O)c3ccc(OC)cc3)n2)cc1`, the concentration at half-maximal activity (AC50) under setting [1] was 35.5 µM [falling, partial curve, poor fit].

In the case of `O=C(Nc1cccc(Cl)c1)Nc1ccnc(-c2cccnc2)n1`, the AC50 under setting [1] is 6.31 µM [falling, single point]. On the same count and under the same terms, with `COc1ccc(S(=O)(=O)N2CCN(C3CC4CCC3C4)CC2)cc1` (configuration not stated) the figure was 35.5 µM [falling, single point]; with `Nc1nc(SCc2ccc([N+](=O)[O-])cc2)c2ncn(C3OC(CO)C(O)C3O)c2n1` (configuration not stated), 6.31 µM [rising, partial curve, poor fit].

Consider `Cc1ccn2cc(CSc3ccccc3)nc2c1`, for which the AC50 under setting [1] was 5.8 µM [falling, partial curve, poor fit]. As for `Cc1noc(/C=C/c2cccnc2)c1[N+](=O)[O-]`, under setting [1], the AC50 is 25.1 µM [falling, single point].

In the case of `O=C(Nc1ccc(Br)cn1)C1CCCN1S(=O)(=O)c1ccccc1` (configuration not stated), under setting [1], the AC50 was 3.16 µM [falling, partial curve].

For the compound `COc1ccc2oc(C(=O)OC(C)C(=O)Nc3ccc(N4CCOCC4)cc3)c(C)c2c1` (configuration not stated), the AC50 under setting [1] is 23.1 µM [rising, single point]. `COc1ccc(CC(=O)NCc2ccc(-n3cccc3)cc2)cc1OC`: the AC50 under setting [1] was 14.1 µM [rising, single point] and the AC50 under setting [2] is 7.94 µM [falling, partial curve, poor fit].

Take `CC(C)C(=O)Nc1ccc(N2CCCC2)cc1`: under setting [1], the concentration at half-maximal activity (AC50) was 18.4 µM [rising, single point]. The same measure, in the same setting: with `Cc1ccccc1OCCSc1nnc(-c2ccncc2)n1C` the figure was 16.4 µM [rising, single point]. In the case of `O=C(Nc1cc(Cl)cc(Cl)c1)c1cccc(OC(F)F)c1`, the AC50 under setting [1] was 20.6 µM [falling, single point] and the AC50 under setting [2] is 32.6 µM [rising, partial curve, poor fit]. For `O=C(N/N=C/c1cn(-c2ccccc2)nc1-c1ccc(F)cc1)c1ccc2c(c1)OCO2`, under setting [1], the AC50 was 3.55 µM [falling, partial curve, poor fit]. Same read-out and setting: with `CCN(C(=O)COC(=O)c1ccccc1SCC(=O)NC1CCCCCCC1)C1CCS(=O)(=O)C1` (configuration not stated) the figure was 13 µM [falling, partial curve]; with `Cc1cc(=O)[nH]c(SCC(=O)Nc2nc(-c3ccccc3)cs2)n1`, 11.2 µM [falling, partial curve, poor fit]. Same read-out and setting: with `O=C(O)c1ccccc1-c1ccccc1C(=O)Nc1ccc2c(c1)[nH]c(=O)c1ccccc12` the figure was 12.6 µM [falling, single point]; with `CC1(C)C(O)=C(c2nc3ccccc3[nH]2)C(=N)N1c1ccccc1`, 35.5 µM [falling, single point]; with `CCOc1ccc(OCCn2c(=S)[nH]c3c(N)ncnc32)cc1`, 35.5 µM [rising, single point]. As to `Cc1[nH]nc2c1C(c1cc(Br)cs1)C(C#N)=C(N)O2` (configuration not stated), under setting [1], the AC50 is 4.11 µM [falling, partial curve]. On the same count and under the same terms, with `O=C(OCc1ccccn1)c1ccc(COc2ccccc2Cl)o1` the figure was 3.98 µM [falling, full curve, poor fit]; with `Clc1ccc(-c2csc(N3CCCCCC3)n2)cc1`, 1.41 µM [falling, full curve, poor fit].
